Our source for the binding values is publication PMC12403265.

For the assay, the target named is DNAH10 (dynein axonemal heavy chain 10), mouse (mouse (endogenous in lung tissue)). Description: co-IP; 3 µg antibody (rabbit IgG as control) on Protein A/G magnetic beads; extracted proteins from mouse lung tissues, overnight at 4 °C; 50 mM Tris, 150 mM NaCl, 0.3% Tween 20, pH 7.5; immunoblot.

Results are given in words; binding and its absence hold for the method and conditions named. Binding seen in cells or lysates may run through a third protein. Binding calls can cover weak binding; strength is not graded here.

B1: CFAP57, mouse (protein, UniProt Q9D180 1-1249)
chain: MSTVVAQALHVFGLRPHVTNNVFFFDEQIIIFPSGNHCVKYNIDQKWQKFIAGSDKSQGMLALAISPNRRYLAISETVQEKPAVTIYELSSIPCRKRKVLNNFDFQVQKFTSMAFSPDSKYLLTQTSPPDSNLVYWLWEKQKVMAIIKADSQNNPIYQVSISSQDNSQVCITGSGVFKLLRFAEGTLKQINFQRGESSNYLAHAWVSEDRVIVGTDTGKLFLFESGDQRWETSIMVKESTSSRSLEVIQESESLIEFPPLSSPVSSVERMDITTNTQQQAMPQVFAIAAYSKGFACSAGPGRVLLFEKVEEKDFYRESREIRIPTDQQSNDPSQSDKQDVLCLCFSPSEETLIASTNKNQLYSITMSLTEISKGEAAHFEYLLYPLHSASITGLDTCIRKPLIATCSLDRSVRIWNYESNTLELYKEYQEEAYTVSLHPSGHYIVVGFADKLRLMNLLIDDIRPFKEYSVRGCKECSFSNGGHLFAAVNGNVIHIFTTTSLENINILKGHTGKIRSLVWNLDDSKLVSAGTDGAVYEWNLSTGKRETECVLKSCSYNSVTTSPDAKVIFAVGSDQTLKEISDSLILREIPAFDVIYTSITISHSGRMIFVGTSVGTIRAMKYPLSLQKEYNEYQAHAGPVMKMLLTFDDQFLLTVGEDGCLFTWKVFDKDGRGIKREREVGFAEEVLVTKTDMEEKAQIMLELKTRVEELKMENEYQLRLKDMNYTEKIKELTDKFIQEMESLKTKNQVLKTEKEKQDISHRERLEELVDKQTRELQDLECCNNQKLLLEYEKYQELQLKSQRMQEEYEKQLRDNDETKSQALEELTEFYEAKLQEKTGLLEEAQEDVRQQLREFEETKKQIEEDEDREIQDIKTKYERKLRDEKESNLRLKGETGIMRKKFSSLQKEIEERTNDIELLKSEQMKLQGIIRSLEKDIQGLKREIQERDETIQDKEKRIYDLKKKNQELEKFKFVLDYKIKELKKQIEPRENEIKVMKEQIQEMEAELERFHKQNTQLELNITELLQKLRATDQEMRKEQQKERDLEALVRRFKTDLHNCVAYIQEPGLLKEKIRGLFEKYVQRADMVEIAGLNSDLQQEYARQREHLERNLATLKKKVIKEGELHRTDYVRIMQENVSLIKEINELRRELKLTRSQIYDLESALKVSKKTRSQEVPESVISKDVVGSTSTMRLNEQEETGRIIEMQRLEIRRLRDQIQEQEQVPGFHTIAGVRLPSIVDSDVDFEVHTK
Turning to B1, the binding entry is recorded as “binds”.
